Further values from the same series stand in other lists.
Test system: revascularization, unstable angina requiring hospitalization, MI, all causes of death, or stroke
Assay: PROVE IT-TIMI 22: SNP by treatment interaction (high-dose atorvastatin vs standard-dose pravastatin), logistic regression (synergy index), primary composite endpoint
Assay type: in vivo, human

`CC(C)c1c(C(=O)Nc2ccccc2)c(-c2ccccc2)c(-c2ccc(F)cc2)n1CC[C@@H](O)C[C@@H](O)CC(=O)O` [Atorvastatin, atorvastatin] gave an OR (rs1424648 allele T, DOM, Imputed, atorvastatin vs pravastatin) of 1.609, an OR (rs1429321 allele A, DOM, Imputed, atorvastatin vs pravastatin) of 1.519 and an OR (rs1429326 allele T, ADD, Imputed, atorvastatin vs pravastatin) of 1.404. The OR (rs1429326 allele T, DOM, Imputed, atorvastatin vs pravastatin) was 1.574, the OR (rs1434507 allele A ADD Imputed) was 1.053 and the OR (rs1434508 allele T ADD Imputed) was 1.053. The OR (rs1435205 allele A ADD Imputed) was 1.021, the OR (rs1443928 allele C REC Imputed) was 0.9918 and the OR (rs1444741 allele A, DOM, Imputed, atorvastatin vs pravastatin) was 0.9777. The OR (rs1449916 allele C, DOM, Imputed, atorvastatin vs pravastatin) was 0.7246, the OR (rs1459523 allele A, ADD, Imputed, atorvastatin vs pravastatin) was 1.051 and the OR (rs1463768 allele G REC Genotyped) was 1.844. For the same molecule, the OR (rs1463769 allele G REC Imputed) was 1.844, the OR (rs1472435 allele A ADD Imputed) was 0.5361 and the OR (rs1472435 allele A DOM Imputed) was 0.5361. The OR (rs1476714 allele A DOM Imputed) was 0.5924, the OR (rs1476714 allele A, DOM, Imputed, atorvastatin vs pravastatin) was 0.5924 and the OR (rs1486723 allele C, REC, Imputed, atorvastatin vs pravastatin) was 0.5711. It also gave an OR (rs1495159 allele G ADD Imputed) of 1.318, an OR (rs1495375 allele A DOM Imputed) of 0.7102 and an OR (rs1495375 allele A, ADD, Imputed, atorvastatin vs pravastatin) of 0.7715. The OR (rs1495375 allele A, DOM, Imputed, atorvastatin vs pravastatin) was 0.7102, the OR (rs1495376 allele T DOM Imputed) was 0.774 and the OR (rs1495377 allele G DOM Imputed) was 0.7814. For the same molecule, the OR (rs1495381 allele T REC Imputed) was 2.08, the OR (rs1495381 allele T, REC, Imputed, atorvastatin vs pravastatin) was 2.08 and the OR (rs1498061 allele C, ADD, Imputed, atorvastatin vs pravastatin) was 0.6227. It also gave an OR (rs1498992 allele G DOM Imputed) of 0.7274, an OR (rs1498992 allele G, DOM, Imputed, atorvastatin vs pravastatin) of 0.7274 and an OR (rs1499001 allele T DOM Imputed) of 0.7573. It also gave an OR (rs1499001 allele T, DOM, Imputed, atorvastatin vs pravastatin) of 0.7573, an OR (rs1512988 allele A DOM Imputed) of 0.7185 and an OR (rs1512988 allele A, ADD, Imputed, atorvastatin vs pravastatin) of 0.7806. For the same molecule, the OR (rs1512988 allele A, DOM, Imputed, atorvastatin vs pravastatin) was 0.7185, the OR (rs1512989 allele T DOM Imputed) was 0.7185 and the OR (rs1512989 allele T, ADD, Imputed, atorvastatin vs pravastatin) was 0.7806. It also gave an OR (rs1512989 allele T, DOM, Imputed, atorvastatin vs pravastatin) of 0.7185, an OR (rs1512991 allele T ADD Imputed) of 0.7106 and an OR (rs1512991 allele T DOM Imputed) of 0.6965. For the same molecule, the OR (rs1512991 allele T, ADD, Imputed, atorvastatin vs pravastatin) was 0.7106, the OR (rs1512991 allele T, DOM, Imputed, atorvastatin vs pravastatin) was 0.6965 and the OR (rs1524310, allele G, ADD, Imputed, PROVE-IT, vs pravastatin) was 1.063. The OR (rs1527059, allele A, DOM, Imputed, PROVE-IT, vs pravastatin) was 0.4524, the OR (rs1527450 allele T ADD Imputed) was 1.146 and the OR (rs1535866, allele G, DOM, Imputed, PROVE-IT, vs pravastatin) was 1.405. It also gave an OR (rs1567740, allele T, ADD, Imputed, PROVE-IT, vs pravastatin) of 0.7805, an OR (rs1567740, allele T, DOM, Imputed, PROVE-IT, vs pravastatin) of 0.7204 and an OR (rs1567740 allele T DOM Imputed) of 0.7204. It also gave an OR (rs1572573, allele A, DOM, Imputed, PROVE-IT, vs pravastatin) of 1.019, an OR (rs1572573 allele A ADD Imputed) of 1.012 and an OR (rs1572573 allele A DOM Imputed) of 1.019. The OR (rs1577497, allele C, REC, Imputed, PROVE-IT, vs pravastatin) was 0.899, the OR (rs1581514, allele T, ADD, Imputed, PROVE-IT, vs pravastatin) was 1.06 and the OR (rs1582321, allele T, DOM, Imputed, PROVE-IT, vs pravastatin) was 0.9009. It also gave an OR (rs1582322, allele A, DOM, Imputed, PROVE-IT, vs pravastatin) of 0.8697, an OR (rs1582323, allele A, DOM, Imputed, PROVE-IT, vs pravastatin) of 0.8751 and an OR (rs1584003 allele C DOM Imputed) of 0.6043. It also gave an OR (rs1584005 allele C DOM Imputed) of 0.6032, an OR (rs1585771 allele G ADD Imputed) of 0.9914 and an OR (rs1592015 allele G DOM Imputed) of 1.138. The OR (rs1592485, allele C, DOM, Imputed, PROVE-IT, vs pravastatin) was 0.8723, the OR (rs1594885 allele A ADD Imputed) was 1.083 and the OR (rs1600954, allele T, ADD, Imputed, PROVE-IT, vs pravastatin) was 1.193. It also gave an OR (rs1603232 allele A DOM Imputed) of 0.7502, an OR (rs1614565 allele C DOM Imputed) of 0.7578 and an OR (rs1648200 allele G ADD Imputed) of 1.299. For the same molecule, the OR (rs1700400 allele T ADD Imputed) was 0.9427, the OR (rs1705237 allele A DOM Imputed) was 0.7578 and the OR (rs1705261, allele A, REC, Imputed, PROVE-IT, vs pravastatin) was 2.005. It also gave an OR (rs1705261 allele A REC Imputed) of 2.005, an OR (rs1782328 allele A (A1), ADD, Imputed, atorvastatin vs pravastatin) of 0.96 and an OR (rs1796337 allele T (A1), DOM, Imputed, atorvastatin vs pravastatin) of 0.6991. It also gave an OR (rs1798083 allele C (A1), DOM, Imputed, atorvastatin vs pravastatin) of 0.7428, an OR (rs1798085 allele T (A1), DOM, Imputed, atorvastatin vs pravastatin) of 0.7578 and an OR (rs1798086 allele T (A1), DOM, Imputed, atorvastatin vs pravastatin) of 0.7565. For the same molecule, the OR (rs1798089 allele C (A1), REC, Imputed, atorvastatin vs pravastatin) was 2.307, the OR (rs1798090 allele C (A1), REC, Imputed, atorvastatin vs pravastatin) was 2.295 and the OR (rs1832222, allele G, DOM, Imputed, PROVE-IT, vs pravastatin) was 1.344. It also gave an OR (rs1832222 allele G (A1), DOM, Imputed, atorvastatin vs pravastatin) of 1.344, an OR (rs1838104 allele A (A1), ADD, Imputed, atorvastatin vs pravastatin) of 0.9138 and an OR (rs1861327, allele G, DOM, Imputed, PROVE-IT, vs pravastatin) of 0.8914. The OR (rs1868581, allele G, ADD, Imputed, PROVE-IT, vs pravastatin) was 1.033, the OR (rs1868616 allele G (A1), ADD, Imputed, atorvastatin vs pravastatin) was 0.8179 and the OR (rs1874313, allele A, ADD, Imputed, PROVE-IT, vs pravastatin) was 0.7883. For the same molecule, the OR (rs1874313, allele A, DOM, Imputed, PROVE-IT, vs pravastatin) was 0.7338, the OR (rs1874313 allele A (A1), DOM, Imputed, atorvastatin vs pravastatin) was 0.7338 and the OR (rs1876409, allele C, DOM, Imputed, PROVE-IT, vs pravastatin) was 1.204. The OR (rs1884902 allele C (A1), REC, Imputed, atorvastatin vs pravastatin) was 0.9755, the OR (rs1913201, allele G, ADD, Imputed, PROVE-IT, vs pravastatin) was 0.7137 and the OR (rs1913201, allele G, DOM, Imputed, PROVE-IT, vs pravastatin) was 0.7026. For the same molecule, the OR (rs1913201 allele G (A1), ADD, Imputed, atorvastatin vs pravastatin) was 0.7137, the OR (rs1913201 allele G (A1), DOM, Imputed, atorvastatin vs pravastatin) was 0.7026 and the OR (rs1936871, allele G, DOM, Genotyped, PROVE-IT, vs pravastatin) was 0.7975. The OR (rs1944279 allele A (A1), ADD, Imputed, atorvastatin vs pravastatin) was 1.083, the OR (rs1961157, allele T, REC, Imputed, PROVE-IT, vs pravastatin) was 1.145 and the OR (rs1987179, allele T, ADD, Imputed, PROVE-IT, vs pravastatin) was 0.617. For the same molecule, the OR (rs1987179, allele T, DOM, Imputed, PROVE-IT, vs pravastatin) was 0.5176, the OR (rs1987179 allele T (A1), DOM, Imputed, atorvastatin vs pravastatin) was 0.5176 and the OR (rs1990023, allele T, DOM, Imputed, PROVE-IT, vs pravastatin) was 0.593. It also gave an OR (rs1990023 allele T (A1), DOM, Imputed, atorvastatin vs pravastatin) of 0.593, an OR (rs1995025, allele C, DOM, Imputed, PROVE-IT, vs pravastatin) of 1.717 and an OR (rs2016194, allele G, DOM, Imputed, PROVE-IT, vs pravastatin) of 0.5934. For the same molecule, the OR (rs2016194 allele G (A1), DOM, Imputed, atorvastatin vs pravastatin) was 0.5934, the OR (rs2024789 allele C (A1), ADD, Imputed, atorvastatin vs pravastatin) was 0.9942 and the OR (rs2024902, allele A, ADD, Imputed, PROVE-IT, vs pravastatin) was 1.087. For the same molecule, the OR (rs2024902 allele A (A1), ADD, Imputed, atorvastatin vs pravastatin) was 1.087, the OR (rs2025107, allele A, DOM, Imputed, PROVE-IT, vs pravastatin) was 0.982 and the OR (rs2025107 allele A (A1), ADD, Imputed, atorvastatin vs pravastatin) was 0.9899. It also gave an OR (rs2025107 allele A (A1), DOM, Imputed, atorvastatin vs pravastatin) of 0.982, an OR (rs2025108, allele T, DOM, Imputed, PROVE-IT, vs pravastatin) of 0.982 and an OR (rs2025108 allele T (A1), ADD, Imputed, atorvastatin vs pravastatin) of 0.9899. The OR (rs2025108 allele T (A1), DOM, Imputed, atorvastatin vs pravastatin) was 0.982, the OR (rs2052428, allele C, DOM, Imputed, PROVE-IT, vs pravastatin) was 0.7089 and the OR (rs2053230, allele C, ADD, Imputed, PROVE-IT, vs pravastatin) was 0.8193. The OR (rs2062448, allele T, DOM, Imputed, PROVE-IT, vs pravastatin) was 0.913, the OR (rs2062448 allele T (A1), ADD, Imputed, atorvastatin vs pravastatin) was 0.913 and the OR (rs2062448 allele T (A1), DOM, Imputed, atorvastatin vs pravastatin) was 0.913. It also gave an OR (rs2063420, allele C, REC, Imputed, PROVE-IT, vs pravastatin) of 0.8647, an OR (rs2063591, allele C, ADD, Imputed, PROVE-IT, vs pravastatin) of 0.7255 and an OR (rs2063591, allele C, DOM, Imputed, PROVE-IT, vs pravastatin) of 0.6936. The OR (rs2063591 allele C (A1), ADD, Imputed, atorvastatin vs pravastatin) was 0.7255, the OR (rs2063591 allele C (A1), DOM, Imputed, atorvastatin vs pravastatin) was 0.6936 and the OR (rs2065604 allele C (A1), DOM, Imputed, atorvastatin vs pravastatin) was 1.177. The OR (rs2066238 allele T (A1), DOM, Imputed, atorvastatin vs pravastatin) was 1.138, the OR (rs2068051 allele G (A1), ADD, Imputed, atorvastatin vs pravastatin) was 0.9214 and the OR (rs2095586, allele A, DOM, Imputed, PROVE-IT, vs pravastatin) was 1.347. The OR (rs2095586 allele A (A1), DOM, Imputed, atorvastatin vs pravastatin) was 1.347.

From patent US10563263B2, “Genetic polymorphisms associated with statin response and cardiovascular diseases, methods of detection and uses thereof” (CELERA CORPORATION, priority 2010, dated 2020)
